Source: paper PMC7699956
Results are given in words; binding and its absence hold for the method and conditions named. In cells and extracts the contact can be indirect. Binding can be weak; no strength is given. For part of these data: Where a sequence is shown, tags or fusion partners need not be part of it. Values belong to the molecule of their own block, whether it stands above or below them.

Protein sequences, listed by entry. Tags and fused reporters are not part of them. Lines headed by an entry give the natural chain unless they say otherwise; changes in a name come on top.
UniProt Q6K8D4: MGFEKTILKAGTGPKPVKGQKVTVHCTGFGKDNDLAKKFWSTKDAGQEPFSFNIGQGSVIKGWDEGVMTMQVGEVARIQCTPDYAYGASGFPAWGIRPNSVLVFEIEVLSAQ

How the values were obtained:
[1] = molecular target: T1, GST-AtYchF1 (Arabidopsis thaliana) (UniProt Q9SA73); experiment: pull-down; E. coli cell lysate with about 100 ug MBP-OsFKBP12 (or MBP tag only) incubated 1 h with E. coli cell lysate with about 100 ug GST-AtYchF1; MagneGST Glutathione Particles; ten washes with 20 mM Tris pH 7.5, 150 mM NaCl; western blot with anti-MBP and anti-GST antibodies; the results call both proteins purified
T1 sequence: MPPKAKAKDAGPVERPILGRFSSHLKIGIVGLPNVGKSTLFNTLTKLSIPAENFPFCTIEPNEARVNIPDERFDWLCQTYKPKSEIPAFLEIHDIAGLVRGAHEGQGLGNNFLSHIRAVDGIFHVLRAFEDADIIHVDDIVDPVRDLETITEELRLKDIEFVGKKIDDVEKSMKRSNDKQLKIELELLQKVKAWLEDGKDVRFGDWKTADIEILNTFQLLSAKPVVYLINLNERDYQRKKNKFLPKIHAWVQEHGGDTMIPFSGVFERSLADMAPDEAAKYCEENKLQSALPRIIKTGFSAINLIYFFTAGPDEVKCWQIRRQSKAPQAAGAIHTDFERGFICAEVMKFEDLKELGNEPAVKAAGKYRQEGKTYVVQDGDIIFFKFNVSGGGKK

[2] = molecular target: GST-OsFKBP12 (Oryza sativa) (UniProt Q6K8D4); experiment: pull-down; E. coli cell lysate with about 100 ug GST-FKBP12 (or GST tag only) incubated 1 h with 500 ug soluble protein from rice leaves (Aichi Asahi); MagneGST Glutathione Particles; five washes with 20 mM Tris pH 7.5, 150 mM NaCl; western blot with anti-OsYchF1 and anti-GST antibodies
[3] = molecular target: nYFP-OsFKBP12 (Oryza sativa); experiment: split reporter; BiFC with nYFP and cCFP fusions in protoplasts of tobacco BY-2 suspension cells, PEG-mediated transformation, 16 h, confocal microscopy

binding [1]: binds
Molecule: MBP-OsFKBP12 (from UniProt Q6K8D4)

binding [2]: binds
B1: native OsYchF1 (protein, UniProt Q6Z1J6 1-394)
chain: MPPKASKKDAAPAERPILGRFSSHLKIGIVGLPNVGKSTFFNIVTKLSIPAENFPFCTIDPNEARVYVPDERFDWLCQLYKPKSEVSAYLEINDIAGLVRGAHAGEGLGNAFLSHIRAVDGIFHVLRAFEDKEVTHIDDSVDPVRDLETIGEELRLKDIEFVQNKIDDLEKSMKRSNDKQLKLEHELCEKVKAHLEDGKDVRFGDWKSADIEILNTFQLLTAKPVVYLVNMSEKDYQRKKNKFLPKIHAWVQEHGGETIIPFSCAFERLLADMPPDEAAKYCAENQIASVIPKIIKTGFAAIHLIYFFTAGPDEVKCWQIRRQTKAPQAAGTIHTDFERGFICAEVMKFDDLKELGSESAVKAAGKYRQEGKTYVVQDGDIIFFKFNVSGGGKK

binding [3]: binds
B2: cCFP-OsYchF1 (protein, UniProt Q6Z1J6 1-394)
chain: B1 chain
